Experimental data: PubChem BioAssay AID1671195 (Yale University, 2021)
Shown is one part, drawn at random, of about 22,000 reagents tested. Over the whole deposit, about 1,510 (6.9%) were called active. 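Active includes knockdowns raising or lowering LDL uptake; positive z-scores mean more uptake, negative mean less.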 Unmarked entries are inactive.

Screen: 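Genes whose knockdown alters LDL uptake in liver cancer cells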 (primary screen)
Cell system: human Huh7 hepatoma cells
Knock-down reagent: siRNA pool against human genes, 18 nM
Duration: about 2 to 2.5 days of knockdown, then 8 h LDL uptake
Challenge: DiI-labelled LDL at 30 µg/ml for 8 h, in lipoprotein-deficient serum medium
Measured: 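Per-cell DiI-LDL intensity by automated imaging; well means scaled to the plate median and given as a robust z-score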
Direction: robust z-score: higher = more LDL uptake after knockdown
Active means: 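Active when two or more replicates show a robust z-score above 2 or below -2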

Target gene	robust z-score, replicate 1	robust z-score, replicate 2	robust z-score, replicate 3
OR5AK2 (olfactory receptor family 5 subfamily AK member 2)	-0.571	-0.476	-0.898
METTL14	-0.51	0.266	1.83
RPS15P3 (ribosomal protein S15 pseudogene 3)	3.18 (active)	2.25	2
MPV17L (MPV17 mitochondrial inner membrane protein like)	-0.776	-1.12	-1.02
SFTPC (surfactant protein C)	-0.477	0.693	-1.18
FMN2 (formin 2)	-0.481	1.47	1.47
GPN1 (GPN-loop GTPase 1)	0.314	0.172	0.588
SOWAHB (sosondowah ankyrin repeat domain family member B)	-0.727	-0.572	-0.154
ZC3H11D (zinc finger CCCH-type containing 11D)	-0.253	0.0462	-0.399

Reagents above marked active (1):
Target gene	robust z-score, replicate 1	robust z-score, replicate 2	robust z-score, replicate 3
RPS15P3 (ribosomal protein S15 pseudogene 3)	3.18 (active)	2.25	2

Additional entries follow:
Target gene	robust z-score, replicate 1	robust z-score, replicate 2	robust z-score, replicate 3
LINC01011 (long independently transcribed non-coding RNA 1011)	1.03	-1.36	0.935
NFIA (nuclear factor I A)	2.57 (active)	2.26	2.25
ZNF729 (zinc finger protein 729)	0.536	0.651	1.28
B9D1 (B9 domain containing 1)	0.00421	0.85	-0.237
LOC441824 (retired record)	-1.49	-1.23	-1.27
ATP5F1A (ATP synthase F1 subunit alpha)	-0.564	-0.762	-0.515
RSPO4 (R-spondin 4)	-0.313	-0.865	-0.863
PLPPR2 (phospholipid phosphatase related 2)	0.543	0.739	1.09
SLC18B1	1.04	1.01	0.247
SLCO1C1	-0.841	-1.18	-1.24
OPALIN (oligodendrocytic myelin paranodal and inner loop protein)	1.57 (active)	2.45	2.03
SULT2A1 (sulfotransferase family 2A member 1)	-0.35	-0.463	-0.428
GLMP (glycosylated lysosomal membrane protein)	0.0687	0.152	0.197
KCNJ5-AS1 (KCNJ5 antisense RNA 1)	-0.941	-0.976	-0.756
MLF2 (myeloid leukemia factor 2)	-1.61	0.424	-0.632
SYT13 (synaptotagmin 13)	-1.04	-1.05	-0.876
ART5 (ADP-ribosyltransferase 5)	1.83	0.188	0.823
CIMIP6 (ciliary microtubule inner protein 6)	-0.109	0.557	-0.224
B3GLCT (beta 3-glucosyltransferase)	1.05	-0.0215	1.6
